Experimental data published in publication PMC8514473.
Results are given in words; binding and its absence hold for the method and conditions named. Binding seen in cells or lysates may run through a third protein. These calls come from enrichment with a bait or labelling near it, and not all partners need be listed. No binding means not detected with the bait.

The chains behind the UniProt entries cited, without tags or fusion partners.
UniProt Q39160: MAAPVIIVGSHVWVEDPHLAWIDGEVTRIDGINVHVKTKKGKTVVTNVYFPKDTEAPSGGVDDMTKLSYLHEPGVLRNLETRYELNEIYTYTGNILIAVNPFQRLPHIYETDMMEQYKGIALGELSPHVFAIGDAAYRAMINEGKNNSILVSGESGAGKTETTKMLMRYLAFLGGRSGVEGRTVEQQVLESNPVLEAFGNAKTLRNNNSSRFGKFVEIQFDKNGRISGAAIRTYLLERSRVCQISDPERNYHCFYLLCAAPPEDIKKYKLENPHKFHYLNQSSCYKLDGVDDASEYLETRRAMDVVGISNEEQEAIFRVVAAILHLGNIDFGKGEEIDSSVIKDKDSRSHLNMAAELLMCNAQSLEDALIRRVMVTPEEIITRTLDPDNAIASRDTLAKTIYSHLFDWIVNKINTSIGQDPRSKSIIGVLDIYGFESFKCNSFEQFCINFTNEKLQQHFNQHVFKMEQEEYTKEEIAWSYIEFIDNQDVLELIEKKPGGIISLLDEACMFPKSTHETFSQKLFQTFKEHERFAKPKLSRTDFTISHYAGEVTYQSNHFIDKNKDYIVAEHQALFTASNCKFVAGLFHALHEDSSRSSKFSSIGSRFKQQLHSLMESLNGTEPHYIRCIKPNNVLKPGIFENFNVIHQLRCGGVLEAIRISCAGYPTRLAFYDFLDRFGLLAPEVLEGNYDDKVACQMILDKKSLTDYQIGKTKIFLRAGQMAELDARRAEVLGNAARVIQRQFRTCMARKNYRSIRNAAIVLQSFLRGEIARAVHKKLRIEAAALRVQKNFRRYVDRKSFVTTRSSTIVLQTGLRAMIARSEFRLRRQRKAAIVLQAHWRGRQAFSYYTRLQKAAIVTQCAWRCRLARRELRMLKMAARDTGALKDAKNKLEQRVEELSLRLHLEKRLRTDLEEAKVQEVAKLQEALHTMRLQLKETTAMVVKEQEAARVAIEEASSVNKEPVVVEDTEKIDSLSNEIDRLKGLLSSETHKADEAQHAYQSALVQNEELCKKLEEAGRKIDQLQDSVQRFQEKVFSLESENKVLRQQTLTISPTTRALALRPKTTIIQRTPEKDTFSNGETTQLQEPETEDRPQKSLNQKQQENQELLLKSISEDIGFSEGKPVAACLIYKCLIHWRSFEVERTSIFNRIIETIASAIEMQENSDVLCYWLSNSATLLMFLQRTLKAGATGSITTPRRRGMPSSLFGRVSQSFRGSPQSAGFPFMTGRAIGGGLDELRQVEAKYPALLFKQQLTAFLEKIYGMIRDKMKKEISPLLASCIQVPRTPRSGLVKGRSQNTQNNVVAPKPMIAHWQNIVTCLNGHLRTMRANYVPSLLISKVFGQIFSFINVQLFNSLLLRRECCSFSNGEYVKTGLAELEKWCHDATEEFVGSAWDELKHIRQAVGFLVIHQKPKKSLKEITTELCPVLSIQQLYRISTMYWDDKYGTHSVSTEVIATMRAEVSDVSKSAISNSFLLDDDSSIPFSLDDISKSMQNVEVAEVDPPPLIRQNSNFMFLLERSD
UniProt F4K5J1: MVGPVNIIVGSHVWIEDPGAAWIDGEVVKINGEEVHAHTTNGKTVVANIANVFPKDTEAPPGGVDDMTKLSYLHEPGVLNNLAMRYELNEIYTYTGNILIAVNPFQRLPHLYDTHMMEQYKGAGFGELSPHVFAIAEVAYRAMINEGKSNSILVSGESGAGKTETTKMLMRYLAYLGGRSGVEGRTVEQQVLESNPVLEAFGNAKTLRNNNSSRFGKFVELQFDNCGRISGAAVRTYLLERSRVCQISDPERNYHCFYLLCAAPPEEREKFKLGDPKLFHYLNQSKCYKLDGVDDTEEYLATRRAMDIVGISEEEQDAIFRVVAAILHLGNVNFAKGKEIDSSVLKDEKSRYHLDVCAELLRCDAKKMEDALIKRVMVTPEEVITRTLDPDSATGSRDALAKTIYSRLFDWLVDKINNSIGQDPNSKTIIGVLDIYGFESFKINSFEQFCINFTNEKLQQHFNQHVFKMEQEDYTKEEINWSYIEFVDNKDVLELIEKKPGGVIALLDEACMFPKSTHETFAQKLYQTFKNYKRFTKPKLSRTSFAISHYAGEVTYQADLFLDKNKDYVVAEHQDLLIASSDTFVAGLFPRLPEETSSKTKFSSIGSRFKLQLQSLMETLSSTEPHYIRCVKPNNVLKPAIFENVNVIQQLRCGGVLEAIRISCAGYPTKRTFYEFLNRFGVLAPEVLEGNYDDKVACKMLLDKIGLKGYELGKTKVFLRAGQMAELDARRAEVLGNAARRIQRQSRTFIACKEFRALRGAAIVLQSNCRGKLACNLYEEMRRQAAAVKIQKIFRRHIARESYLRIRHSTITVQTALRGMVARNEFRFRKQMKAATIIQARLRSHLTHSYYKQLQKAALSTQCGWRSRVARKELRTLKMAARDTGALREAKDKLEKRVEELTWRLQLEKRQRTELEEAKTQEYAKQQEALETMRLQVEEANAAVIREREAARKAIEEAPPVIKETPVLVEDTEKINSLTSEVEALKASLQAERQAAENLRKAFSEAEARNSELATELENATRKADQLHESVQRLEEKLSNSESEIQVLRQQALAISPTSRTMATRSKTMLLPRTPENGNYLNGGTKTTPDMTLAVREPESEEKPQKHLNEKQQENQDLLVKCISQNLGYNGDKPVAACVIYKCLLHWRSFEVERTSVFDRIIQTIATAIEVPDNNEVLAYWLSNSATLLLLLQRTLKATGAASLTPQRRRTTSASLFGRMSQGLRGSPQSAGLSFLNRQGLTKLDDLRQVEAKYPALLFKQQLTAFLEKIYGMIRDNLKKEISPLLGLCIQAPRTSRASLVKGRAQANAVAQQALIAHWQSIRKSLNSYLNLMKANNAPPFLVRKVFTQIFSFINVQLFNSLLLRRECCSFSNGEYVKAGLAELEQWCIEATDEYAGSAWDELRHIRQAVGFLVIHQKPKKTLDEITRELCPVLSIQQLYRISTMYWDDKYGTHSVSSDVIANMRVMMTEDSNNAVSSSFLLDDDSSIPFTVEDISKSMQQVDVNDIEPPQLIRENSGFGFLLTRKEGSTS

Biological target: GFP-MRF7 (Myosin Recruitment Factor 7), stable A. thaliana line (A. thaliana)
Assay: affinity purification with mass spectrometry; GFP-Trap_A beads (Chromotek) on total protein extracts of two-week-old A. thaliana seedlings (wild type, GFP-MRF7, GFP-ΔMRF7); LC-MS of the whole sample; hits with #PSM higher than 5 kept

binding	Substance
no binding	Myosin XI-1 (endogenous) (from UniProt Q39160 1-1520)
binds	Myosin XI-K (endogenous) (from UniProt F4K5J1 1-1531)
